In publication PMC4123912:
No constants are given. Whether binding was seen depends on the method and setting. In cells and extracts the contact can be indirect. Binding calls can cover weak binding; strength is not graded here. For some assays here: Tags and fused reporters may be left off the sequences shown.

By UniProt entry, the sequences of proteins in these tests, tags left out. Where a name states a change or a piece, a line headed by the entry shows the natural chain unless it says otherwise.
UniProt Q99836: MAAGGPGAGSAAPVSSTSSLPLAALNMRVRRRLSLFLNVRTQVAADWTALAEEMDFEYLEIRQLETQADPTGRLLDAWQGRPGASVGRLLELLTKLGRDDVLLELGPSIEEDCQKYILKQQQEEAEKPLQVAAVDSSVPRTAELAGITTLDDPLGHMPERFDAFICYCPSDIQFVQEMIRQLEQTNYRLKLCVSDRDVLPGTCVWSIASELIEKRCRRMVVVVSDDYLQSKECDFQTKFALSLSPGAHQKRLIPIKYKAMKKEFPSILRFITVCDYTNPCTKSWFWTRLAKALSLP
UniProt Q92985: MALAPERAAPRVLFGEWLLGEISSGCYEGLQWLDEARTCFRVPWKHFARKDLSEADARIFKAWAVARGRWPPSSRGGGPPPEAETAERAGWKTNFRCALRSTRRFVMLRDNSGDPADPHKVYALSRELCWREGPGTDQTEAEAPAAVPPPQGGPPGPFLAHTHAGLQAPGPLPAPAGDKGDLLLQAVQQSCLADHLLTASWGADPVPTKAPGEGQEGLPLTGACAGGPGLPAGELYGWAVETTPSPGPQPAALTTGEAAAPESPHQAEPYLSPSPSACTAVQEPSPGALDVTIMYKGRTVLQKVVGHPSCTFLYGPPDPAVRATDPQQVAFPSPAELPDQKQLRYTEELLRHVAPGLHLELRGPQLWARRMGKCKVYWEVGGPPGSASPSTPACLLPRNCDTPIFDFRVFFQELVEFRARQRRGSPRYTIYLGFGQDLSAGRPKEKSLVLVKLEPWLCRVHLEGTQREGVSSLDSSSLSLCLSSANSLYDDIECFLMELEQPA

Legend:
[1] = target: FLAG-tagged human MyD88 (human) (UniProt Q99836); assay: co-IP; HEK293T cells co-transfected with FLAG-MyD88 and GFP-IRF7 (human or bat), lysed 24 h later (50 mM Tris pH 7.4, 1.0% Triton X-100, 150 mM NaCl, 1 mM EDTA); FLAG-MyD88 precipitated with anti-FLAG M2-agarose, 2 h at 4°C; blot with anti-human IRF7 antibody
[2] = target: FLAG-tagged bat (Pteropus alecto) MyD88 (Pteropus alecto); assay: as above

| binding [1] | binding [2] | Molecule |
| --- | --- | --- |
| binds | – | GFP-tagged human IRF7 (from UniProt Q92985) |
| – | binds | GFP-tagged bat (Pteropus alecto) IRF7 (protein, UniProt A0A076YII5 1-503) MAAARDRGAPRVLFADWLLGEVSSGRYEGLRWLDEARTRFRVPWKHFSRKNLGEADSLIFKAWAIARGRWPLSSGPGNPPIRESALRAGWKTNFRCALRSTQRFVMLHDNSADPADPHKVYELSSEPPWRESPGINQGEHKALEDASSWRGGLPRPHLVDAGERLGPAPSAPSPGLAGSTGDLLLQALQQSHLEDHLLDGAQEVDPVPLEAPGPELPAEQPYLPWAMEVAASPRSQPQAAMTDAGPAPEPWQPLQETEPSTQVVGPSHPQPSLHVESGLGTLDVTIMYKGRTVLQEVVGRPRCVLLYGPPGLASEAREPQEPQMVAFPSPAEPPDQKQLHYTEKLLQHVAPGLQLELRGPGLWARRLGKCKVYWEVGGPLGSDNPSTPARLLQRNCDTPIFDFGTFFRELVEFRTRQRRGSPHYTIYLGFGQDLSAGRSKDRSLVLVKLEPWLCRAYLESVQREGVSSLDSSSFSSALSSSNSLYEDLEHFLEHFLMEVEQPA |
